Laboratory results from US20080193450A1 (ISTITUTO SUPERIORE DI SANITA, published 2008).
These are yes or no findings as the source states them, for the method shown. Some entries that bind do so weakly or less than the wild type.

Chains of the proteins cited; added tags and fusions are not shown. Residues count along the entry.
UniProt P0CS83, residues 57-398: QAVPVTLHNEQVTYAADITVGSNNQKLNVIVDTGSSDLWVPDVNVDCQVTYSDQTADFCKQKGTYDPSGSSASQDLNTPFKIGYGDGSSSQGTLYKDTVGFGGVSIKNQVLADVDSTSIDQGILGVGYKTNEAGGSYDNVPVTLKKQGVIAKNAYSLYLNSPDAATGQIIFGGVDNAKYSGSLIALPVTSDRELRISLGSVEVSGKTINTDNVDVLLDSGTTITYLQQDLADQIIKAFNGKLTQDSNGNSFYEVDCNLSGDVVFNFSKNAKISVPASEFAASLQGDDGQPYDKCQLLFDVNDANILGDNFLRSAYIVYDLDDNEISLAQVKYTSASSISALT

Target: recombinant 6x his-tagged SAP2 (secretory aspartic protease 2 of Candida albicans), refolded (Candida albicans) (UniProt P0CS83)
Assay: ELISA screen on coated recombinant SAP2

Binder	binding
ADR4-11 (other) EVQLLESGGGLVQPGGSLRLSCAASGVIFTDQTMGWVRQAPGKGLEWVSAIKTRDGSTYYADSVKGRFTISRDNSKNTLYLQMNSLRAEDTAVYYCARFLRPNASRGSAREAQIHSWGQGTLVTVSS	binds
ADR4-13 (other) EVQLLESGGGLVQPGGSLRLSCAASGFSISYKNMAWVRQAPGKGLEWVSAIKAANGSTYYADSVKGRFTISRDNSKNTLYLQMNSLRAEDTAVYYCATGSQKKRTYTFDFWGQGTLVTVSS	binds
ADR4-6 (other) EVQLLESGGGLVQPGGSLRLSCAASGFRVSNYDLTWVRQAPGKGLEWVSTISATNGSTYYADSVKGRFTISRDNSKNTLYLQMNSLRAEDTAVYYCAAVTWWLLRHNDNLGFWGQGTLVTVSS	binds
